The text below walks through data of PMC6925144, “A prospective compound screening contest identified broader inhibitors for Sirtuin 1” (Scientific Reports, 2019).

Chains of the proteins cited; added tags and fusions are not shown. Residues count along the entry.
UniProt Q96EB6, 2-747 limits assumed: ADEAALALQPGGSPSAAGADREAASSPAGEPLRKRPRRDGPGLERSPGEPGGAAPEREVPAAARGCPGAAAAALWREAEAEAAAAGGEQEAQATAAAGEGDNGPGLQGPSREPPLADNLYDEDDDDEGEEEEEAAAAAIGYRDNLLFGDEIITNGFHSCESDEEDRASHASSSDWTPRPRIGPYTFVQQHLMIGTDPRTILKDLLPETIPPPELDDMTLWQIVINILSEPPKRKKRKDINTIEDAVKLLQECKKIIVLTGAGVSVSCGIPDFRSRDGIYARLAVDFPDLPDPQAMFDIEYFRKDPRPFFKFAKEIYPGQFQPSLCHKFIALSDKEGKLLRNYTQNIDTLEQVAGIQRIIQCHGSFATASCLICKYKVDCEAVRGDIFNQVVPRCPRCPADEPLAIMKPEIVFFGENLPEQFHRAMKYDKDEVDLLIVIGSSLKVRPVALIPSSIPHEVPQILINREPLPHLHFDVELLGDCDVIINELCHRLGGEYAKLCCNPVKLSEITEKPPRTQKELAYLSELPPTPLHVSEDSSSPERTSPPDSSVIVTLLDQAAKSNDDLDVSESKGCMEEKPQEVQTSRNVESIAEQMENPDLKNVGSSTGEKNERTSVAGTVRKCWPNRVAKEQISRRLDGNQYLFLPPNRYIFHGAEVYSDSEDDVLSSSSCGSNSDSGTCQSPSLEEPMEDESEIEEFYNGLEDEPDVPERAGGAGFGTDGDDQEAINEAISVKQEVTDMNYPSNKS

In all, about 3,200 compounds were measured (“TSA(with NAD+) / Primary screening (TSA) / delta Tm (K)”: median about -0.04, highest 2% from about 0.37 on). Some of the results follow.

In this experiment the target is NAD-dependent deacetylase Sirtuin 1 (human, UniProt Q96EB6). Nature of the experiment: primary screen, delta tm. Also on record: single well (n = 1, as 'the same TSA'). To be noted: 10 µM.
With `CN(Cc1nc2ccccc2s1)C(=O)CSc1nnc(-c2cccnc2)n1C1CC1`, the “TSA(with NAD+) / Primary screening (TSA) / delta Tm (K)” value is given as -0.04 K.
As for `O=C(O)CCCCCN1C(=O)/C(=C/c2cccc3ccccc23)SC1=S`, the figure is 0.01 K; as for `CC(C)(C)OC(=O)N1CCCCC1CNc1cnc2ccccc2n1` (stereo not drawn), -0.13 K.
`NC(=O)C1CCN(Cc2nc3cc(Cl)ccc3c(=O)[nH]2)CC1`: the “TSA(with NAD+) / Primary screening (TSA) / delta Tm (K)” value is reported as 0.05 K.
The figure for `O=C(CCc1nc2ccccc2c(=O)[nH]1)Nc1ccc(N2CCN(Cc3ccccc3)CC2)cc1` is 0.03 K; for `CCCCn1ccnc1C(=O)c1cccc(S(=O)(=O)N(C)c2ccccc2)c1` it is -0.08 K; for `Cc1ccc2[nH]c(C(=O)O)c(C)c2c1` it is -0.04 K.
The figure for `Cc1ccc(C(=O)NNC(=O)c2cccc(S(=O)(=O)N(C)c3ccc(C)cc3)c2)cc1` is -0.03 K.
The figure for `O=C(NCc1nnc2n1-c1ccccc1CC2)c1ccc2ccccc2c1` is 0.05 K; for `Cc1ccc(S(=O)(=O)Nc2ccc(F)cc2)cc1C(=O)NCc1cccc(NC(=O)C2CC2)c1` it is -0.06 K.
With `Cc1c(C(=O)NCc2nnc3n2CCC3)oc2ccc(Cl)cc12`, the “TSA(with NAD+) / Primary screening (TSA) / delta Tm (K)” value stood at 0.06 K.
The figure for `O=C(/C=C/c1ccccc1)C1=C(O)C(=O)N(CCCN2CCOCC2)C1c1ccc(Cl)cc1` (stereo not drawn) is -0.05 K.
The figure for `Cc1ccc(COC(=O)c2cccc3c2C(=O)c2ccccc2C3=O)cc1` is 0.11 K; for `CCOC(=O)C1=C(C)NC(C)=C(C(=O)OCC)C1c1nc2ccccc2[nH]1` it is -0.09 K; for `Cc1nc(N2CCN(CC3CCCO3)CC2)c2c(-c3ccccc3)csc2n1` (stereo not drawn) it is -0.01 K.
As for `Oc1cnc2ccccc2c1`, the figure is -0.05 K.
In the case of `COc1cccc(C2C(C(=O)/C=C/c3ccco3)=C(O)C(=O)N2CCCN2CCOCC2)c1` (stereo not drawn), the “TSA(with NAD+) / Primary screening (TSA) / delta Tm (K)” value is given as -0.12 K.
The figure for `CC(=O)NC1CCCN(c2nc3ccccc3cc2CO)C1` (stereo not drawn) is -0.01 K; for `CCS(=O)(=O)Nc1ccc(S(=O)(=O)Nc2nccs2)c(OC)c1` it is -0.05 K; for `NC1=C(c2nc3ccccc3[nH]2)C(=O)CN1c1ccc(CC(=O)O)cc1` it is -0.03 K.
Regarding `CC(=O)c1ccc(F)cc1NC(=O)C1CCCOC1` (stereo not drawn), the “TSA(with NAD+) / Primary screening (TSA) / delta Tm (K)” value is on record as -0.22 K.
The figure for `COc1cc(Br)c(/C=C2/Oc3cc(O)ccc3C2=O)cc1O` is 0.03 K; for `Cc1ccc(-c2sc(-c3ccccc3)nc2CC(=O)N/N=c2/sc3ccccc3n2C)cc1` it is 0.25 K; for `NC(=O)C1CCN(CC(=O)Nc2cc(C3CCCC3)nn2-c2ccccc2)CC1` it is -0.28 K.
The figure for `CC1=NN(c2ccccc2)C(=O)/C1=C\c1cn(-c2ccccc2)nc1-c1cc2ccccc2oc1=O` is -0.28 K.
Take `Cc1sc2nc(CSc3ccccc3)nc(N3CCC(C(N)=O)CC3)c2c1C`: the “TSA(with NAD+) / Primary screening (TSA) / delta Tm (K)” value is on record as 0.49 K.
As for `O=C(Nc1cc(Br)c(F)cc1Cl)C1CCCO1` (stereo not drawn), the figure is -0.04 K; as for `CC(NS(=O)(=O)c1ccc(C(N)=O)cc1)c1cc(F)c(Cl)cc1Cl` (stereo not drawn), -0.04 K; as for `COc1ccc(OC)c(/C=C2/Oc3cc(O)ccc3C2=O)c1`, -0.06 K.
Take `O=C(CN1CCN(C(=O)c2ccccc2Oc2ccccc2)CC1)Nc1ccccc1Cl`: the “TSA(with NAD+) / Primary screening (TSA) / delta Tm (K)” value is reported as -0.01 K.
As for `Cc1cc(S(=O)(=O)NCc2ccc(C(N)=O)cc2)sc1Cl`, the figure is 0.06 K.
As for `O=C1CC(c2ccccc2)c2ccc3ccccc3c2N1` (stereo not drawn), the “TSA(with NAD+) / Primary screening (TSA) / delta Tm (K)” value was -0.52 K.
The figure for `O=C(Cc1n[nH]c(=O)c2ccccc12)Nc1ccc(N2CCN(Cc3ccccc3)CC2)cc1` is -0.03 K; for `Cc1nc(-c2cccnc2)nc(NCC2CCOC2)c1C` (stereo not drawn) it is -0.24 K; for `O=C(CN1CCN(c2ncnc3c2oc2ccccc23)CC1)c1cccs1` it is -0.02 K.
As for `OCC1CCN(c2ncnc3ccsc23)CC1`, the “TSA(with NAD+) / Primary screening (TSA) / delta Tm (K)” value is reported as -0.13 K.
The figure for `Cc1cc(C)n2nc(C(=O)Nc3cc(C(N)=O)cc(F)c3C)nc2n1` is -0.01 K.
As for `Cc1nc2cc(NC(=O)CCNC(=O)/C=C/c3ccccc3)ccc2o1`, the figure is -0.05 K.
As for `C=CCn1c(SCC(=O)NCc2ccccc2F)nc2ccsc2c1=O`, the figure is 0.06 K; as for `CCCCCCc1cc2c3c(c(=O)oc2cc1OCC(N)=O)CCC3`, -0.04 K; as for `CN(C)c1ccc(CCC(=O)N2CCN(c3cnccn3)CC2)cc1`, -0.03 K.
`COc1ccc(-c2nnc(S)n2CC(=O)Nc2ccc(C(N)=O)cc2)cc1`: the “TSA(with NAD+) / Primary screening (TSA) / delta Tm (K)” value was -0.04 K.
The figure for `O=C(COC(=O)c1cc(-c2ccc(Cl)cc2)nc2ccccc12)NNC(=O)c1cccs1` is 0.16 K.
As to `COc1ccc2c(C=C3C(=O)NC(=S)NC3=O)cccc2c1`, the “TSA(with NAD+) / Primary screening (TSA) / delta Tm (K)” value is -0.28 K.
As for `CCCCn1nnnc1COC(=O)c1cccc(S(=O)(=O)N(C)c2ccc(OC)cc2)c1`, the figure is -0.06 K; as for `O=C(Cn1[nH]c(=O)c2ccccc2c1=O)Nc1ccc(N2CCN(Cc3ccccc3)CC2)cc1`, 0.05 K; as for `COCCOc1cccc(Br)c1`, -0.13 K.
The figure for `COc1ncnc2c1CN(Cc1nc(-c3ccccc3)oc1C)CC2` is -0.04 K; for `Nc1nsc(N2CCN(c3nc(C4CC4)nc4sc5c(c34)CCCC5)CC2)n1` it is -0.12 K.
Turning to `COc1ccc(NC(=O)c2ccccc2NC(=O)COC(=O)C23CC4CC(CC(O)(C4)C2)C3)cc1`, the “TSA(with NAD+) / Primary screening (TSA) / delta Tm (K)” value was -0.04 K.
In the case of `CC(NCC(=O)NCC(=O)Nc1ccc(F)cc1)c1cccs1` (stereo not drawn), the “TSA(with NAD+) / Primary screening (TSA) / delta Tm (K)” value was -0.11 K.
The figure for `CCN1CCN(Cc2ccc(CNC(=O)OCC(F)(F)F)cc2)CC1` is -0.04 K; for `O=C(Nc1cccc(S(=O)(=O)N2CCOCC2)c1)c1cn(-c2ccccc2)nc1-c1ccccc1` it is 0.12 K; for `COc1ccc(N(C)S(=O)(=O)c2cccc(C(=O)OCCN3C(=O)c4ccccc4C3=O)c2)cc1` it is -0.03 K.
As for `CCc1cc(O)nc(Cn2c(N)nc(C#N)c2C#N)n1`, the figure is -0.24 K; as for `O=C1NC(=S)NC(=O)C1=Cc1cn(-c2ccccc2)nc1-c1cc2ccccc2oc1=O`, -0.05 K; as for `O=C(CSc1nnc(NCc2ccco2)s1)N1CCN(C/C=C/c2ccccc2)CC1`, 0.05 K.
The figure for `Cc1cccc(CN2CCN(C(=O)COC(=O)c3ccc(C(N)=O)cc3)CC2)c1` is -0.16 K; for `CC(=O)Nc1ccc(NCc2nnc3n(C)c(=O)c4ccccc4n23)cc1` it is -0.12 K; for `COc1ccc(OC)c(N(CC(=O)NN=C2CCC(C(C)(C)C)CC2)S(=O)(=O)c2ccc(OC)c(OC)c2)c1` (stereo not drawn) it is 0.06 K.
As for `CCc1cc(C(=O)Nc2cc(C(N)=O)ccc2N2CCCC2)sc1C`, the “TSA(with NAD+) / Primary screening (TSA) / delta Tm (K)” value is reported as -0.13 K.
The figure for `Nc1ncnc2c1ncn2[C@@H]1O[C@H](CO)[C@@H](O)[C@H]1O` is -0.03 K; for `COc1ccc(NN=C2C(=O)NC(=S)NC2=O)cc1` it is -0.04 K; for `CC(NC(=O)COC(=O)c1cccc(S(=O)(=O)NCc2ccccc2)c1)C12CC3CC(CC(C3)C1)C2` (stereo not drawn) it is 0.05 K.
The figure for `CC(C)COc1ccc(C(=O)C2=C(O)C(=O)N(CCN3CCOCC3)C2c2ccncc2)cc1` (stereo not drawn) is -0.09 K.
As for `Cc1cc(CN2CCN(S(=O)(=O)c3cc(C(N)=O)n(C)c3)CC2)on1`, the figure is -0.19 K.
On to `Cc1ccc(N(C)S(=O)(=O)c2cccc(C(=O)Nc3sc4c(c3C(N)=O)CCCC4)c2)cc1`, for which the “TSA(with NAD+) / Primary screening (TSA) / delta Tm (K)” value was found to be 0.13 K.
As for `N#Cc1cc(O)cc(C(=O)OCC(=O)NC2(C#N)CCCCC2)c1`, the figure is -0.05 K; as for `Cc1ccc(C(=O)NCC(=O)N2CC=C(c3c[nH]c4cc(F)ccc34)CC2)s1`, 0.01 K.
As for `Cc1ccc(C(=O)N(C)C)cc1OC(=O)c1ccc2[nH]c(C(F)F)nc2c1`, the figure is -0.18 K; as for `CCOCC(NC(=O)N1CCN(C(=O)c2cc3ccccc3[nH]2)CC1)C(C)C` (stereo not drawn), -0.04 K.
Turning to `CC1CN(C(=O)/C=C/c2ccc(C(=O)O)cc2)CC(C)(C)O1` (stereo not drawn), the “TSA(with NAD+) / Primary screening (TSA) / delta Tm (K)” value is listed as -0.13 K.
The figure for `COc1ccccc1NC(=O)COc1ccc(C(=O)OCC(=O)NC23CC4CC(CC(C4)C2)C3)cc1OC` is 0.13 K; for `CCc1cc2c(N3CCC(C(N)=O)CC3)nc(C)nc2s1` it is -0.18 K.
The figure for `CC(=O)Nc1ccc(CNCc2ccccc2CN2CCCC2)cc1` is -0.16 K; for `Cc1ccc(-c2nnc(NC(=O)COc3cc(C)cc(C)c3)[nH]2)cc1` it is -0.11 K; for `CS(=O)(=O)Nc1ccc(C(=O)/C=C/c2ccc3c(c2)CCO3)cc1` it is 0.09 K.
The figure for `Cn1cc(S(=O)(=O)NCC2CCN(c3ccc(F)cc3)C2)cc1C(=O)O` (stereo not drawn) is -0.01 K.
On to `COC(=O)c1ccc2[nH]c(=O)[nH]c2c1`, for which the “TSA(with NAD+) / Primary screening (TSA) / delta Tm (K)” value was -0.01 K.
The figure for `c1ccc2c(c1)oc1c(N3CCCC3)ncnc12` is -0.14 K; for `Cc1[nH]c2ccccc2c1C1CCN(C(=O)c2n[nH]c3c2CCC3)CC1` it is -0.01 K.
Take `NC(=O)CC(Nc1ncncc1Br)C1CCCCC1` (stereo not drawn): the “TSA(with NAD+) / Primary screening (TSA) / delta Tm (K)” value is recorded as -0.09 K.
The figure for `O=C(CSc1nnc(NCc2ccco2)s1)Nc1nc2c(F)c(F)c(F)cc2s1` is -0.08 K; for `COC(=O)/C=C1/NC(=O)CS1` it is -0.13 K; for `O=C(NNC1c2ccccc2-c2ccccc21)c1ccc2ccccc2n1` it is -0.11 K.
As for `COc1ccc(N(C)S(=O)(=O)c2cccc(C(=O)NNC(=O)OC(C)(C)C)c2)cc1`, the “TSA(with NAD+) / Primary screening (TSA) / delta Tm (K)” value is -0.14 K.
As for `CCOC(=O)c1cn[nH]c1N`, the figure is -0.19 K; as for `CCOC(=O)N1CCN(CCC(=O)Nc2ccc(C(C)=O)cc2)CC1`, -0.19 K; as for `NC(=O)c1ccccc1NC(=O)C1CC1`, -0.19 K.
In the case of `NCC1(O)CCC1`, the “TSA(with NAD+) / Primary screening (TSA) / delta Tm (K)” value is -0.15 K.
